# From PubChem BioAssay AID2685 (National Center for Advancing Translational Sciences (NCATS), 2010)
# Some of the results follow. The main result of the screen is listed elsewhere. These columns were measured beside it and carry no call. Most of these compounds were active or inconclusive in the main read-out, so they are no random draw. Potencies come from curve fits of mixed quality, noted in brackets.
# Test: qHTS Assay for Lipid Storage Modulators in Drosophila S3 Cells;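 for cell number change: cells counted by Cell Tracker Red CMTPX staining in the red channel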
# Conditions: BODIPY lipid droplet fluorescence, 18-24 h; for cell number change: measured here: cell count max response, cells fed with added oleic acid
# Method in brief: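 Drosophila S3 cells loaded with oleic acid (400 uM, as added) and compounds at several concentrations; lipid droplets imaged by 488-nm laser-scanning cytometry, 500–530 nm intensity and object ratio to cell channel. Percent activity normalized to 20 uM Triacsin C.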
# [1] = measured here: lipid fluorescence (Fed channel) AC50, cells fed with added oleic acid
# [2] = measured here: cell number channel AC50, cells fed with added oleic acid
SMILES,cell number change [%],AC50 [1],AC50 [2]
Cc1cc(C)n(/N=C/c2ccco2)c(=O)c1C#N,-12.7,"0.184 µM [falling, full curve, poor fit]",–
Cc1cccc(NC(=O)c2cnccn2)c1,-10.2,"29.1 µM [rising, single point]",–
Cc1ccc(S(=O)(=O)Nc2cccc(/C=C/C(=O)O)c2)cc1,11.6,"4.11 µM [rising, single point]",–
COc1ccc(CN(C)C(=O)c2ccccc2OCc2c(C)noc2C)c(OC)c1,-25.6,"5.17 µM [falling, partial curve]",–
CCOC(=O)c1c(-c2cccc([N+](=O)[O-])c2)csc1N,-15.3,"2.06 µM [falling, partial curve, poor fit]","3.66 µM [falling, partial curve, poor fit]"
CCOC(=O)c1cc(CC)sc1/N=C/C1=C(O)CCCC1=O,45.2,–,"29.1 µM [rising, single point]"
COc1ccc(C(=O)c2sc(Nc3ccc(NC(C)=O)cc3)nc2C)cc1,-8.03,"20.6 µM [falling, single point]",–
O=S(=O)(c1cccs1)N1CN(Cc2ccc(Cl)cc2)c2nc3ccccc3nc21,17.9,–,–
COc1ccc(C)cc1NC(=O)C1CCN(S(=O)(=O)c2cccc3nonc23)CC1,–,"6.51 µM [falling, single point]",–
O=C(NNc1nc2cc3c(cc2s1)OCO3)c1ccc(F)cc1,1.71,–,–
CN(C)C(=O)CN(c1ccc2c(c1)OCO2)S(C)(=O)=O,-28.7,"0.184 µM [falling, full curve, poor fit]",–
CC1(C)C(=O)Nc2ccccc2N1C(=O)COC(=O)CSc1ccc(F)cc1,29.3,"32.6 µM [rising, partial curve]",–
COc1ccc(N(CC(=O)NC2CCCCC2)C(=O)CCC(=O)Nc2nc(C)cs2)cc1,24.8,"9.2 µM [rising, partial curve]",–
Cc1ccc(NC2=CC(=O)CC(C)(C)C2)cc1Cl,-11.3,"0.00411 µM [falling, full curve, poor fit]","1.84 µM [falling, partial curve]"
O=C(NC(NNc1ccc([N+](=O)[O-])cc1)(C(F)(F)F)C(F)(F)F)c1ccc(Cl)cc1,-38.4,"10.3 µM [rising, partial curve]","10.3 µM [falling, partial curve]"
CCOc1ccc(NC(=S)N2CCC(NC(=O)c3ccccc3C)CC2)cc1,21,–,–
Cc1ccc(N2CCN(/N=C/c3c(C)nn(-c4ccccc4)c3Cl)CC2)cc1,-12.8,"16.4 µM [falling, single point]",–
Cc1cc(C)n(-c2nc(C(F)(F)F)nc3ccccc23)n1,-11.4,–,–
CCOC(=O)Cn1c(-c2nonc2NC(=O)c2ccccc2F)nc2ccccc21,–,"18.4 µM [falling, partial curve]","6.51 µM [falling, single point]"
O=C1N(S(=O)(=O)c2ccccc2F)C(=O)C2(CCCC2)N1S(=O)(=O)c1ccccc1F,-31.8,"11.6 µM [falling, partial curve, poor fit]","23.1 µM [falling, single point]"

# Copied from the list.
# `COc1ccc(N(CC(=O)NC2CCCCC2)C(=O)CCC(=O)Nc2nc(C)cs2)cc1` | cell number change [%]: 24.8
# `Cc1ccc(N2CCN(/N=C/c3c(C)nn(-c4ccccc4)c3Cl)CC2)cc1` | AC50 [1]: 16.4 µM [falling, single point]
# `CCOC(=O)c1cc(CC)sc1/N=C/C1=C(O)CCCC1=O` | cell number change [%]: 45.2
# `Cc1ccc(S(=O)(=O)Nc2cccc(/C=C/C(=O)O)c2)cc1` | AC50 [1]: 4.11 µM [rising, single point]

# (more compounds)

SMILES,cell number change [%],AC50 [1],AC50 [2]
O=C(O)Cn1nc(-c2ccccc2)oc1=O,-18.9,"29.1 µM [falling, partial curve, poor fit]",–
CCCC(C)NC(=O)c1ccc2[nH]c3c(c2c1)CC(C)CC3 (centres undefined),–,–,"0.0731 µM [falling, full curve, poor fit]"
CCCCc1cc(=O)oc2cc(C)cc(OCC(=O)Nc3ccccn3)c12,13,"1.84 µM [falling, partial curve]",–
CCCCCCNC(=O)CCNC(=O)c1cc(OC)c(OC)c(OC)c1,-21.5,"2.31 µM [falling, full curve]","0.461 µM [falling, full curve, poor fit]"
CN1C2=NCCN2C(=O)c2cc(Cl)ccc21,-49.7,"6.51 µM [falling, partial curve]","5.17 µM [falling, full curve]"
COc1cc(C(=O)N(C)Cc2cccc(OC)c2OC)ccc1OCC(=O)Nc1cccc(C(F)(F)F)c1,-99.2,"2.59 µM [rising, single point]","29.1 µM [falling, single point]"
O=C(OCC(=O)N1CCc2ccccc21)c1ccccc1[N+](=O)[O-],3.87,"4.11 µM [rising, single point]",–
Cc1cc(C)c2oc(C(=O)Nc3ccc(S(=O)(=O)Nc4nccs4)cc3)cc(=O)c2c1,0.436,–,–
CC(C)CN(C(=O)COC(=O)CSc1ccccc1F)c1c(N)n(Cc2ccccc2)c(=O)[nH]c1=O,-8.73,"0.411 µM [falling, partial curve]","0.206 µM [falling, full curve, poor fit]"
O=C(O)C(=O)/C(=C\c1ccc(Cl)cc1)c1ccc2ccccc2n1,77.5,–,"13 µM [rising, partial curve, poor fit]"
C=CCN1C(=O)CN=C1Nc1cc(C)cc(C)c1,0.78,"32.6 µM [rising, single point]",–
CCOc1ccc(C(=O)NC(=S)NCc2cccnc2)cc1,-16.7,"2.59 µM [rising, full curve]","3.26 µM [falling, single point]"
CN(CC(=O)Nc1ncn[nH]1)S(=O)(=O)c1ccc(Br)cc1,9.68,"25.9 µM [rising, single point]",–
COC(=O)c1ccccc1NC(=O)COc1ccc2c(c1)OCO2,-9.39,"16.4 µM [rising, single point]",–
CC1CCc2nn(CC(=O)NCCCN3CCOCC3)cc2C1 (centres undefined),-48.3,"5.17 µM [falling, partial curve, poor fit]","2.31 µM [falling, partial curve, poor fit]"
CC1(C)Cc2[nH]c(=O)c(C#N)cc2CS1,-5.53,"0.00517 µM [falling, full curve, poor fit]",–
CCC(C)(C)NC(=O)CN(CC1CCCO1)C(=O)CNS(=O)(=O)c1ccccc1 (centres undefined),-20.5,"5.17 µM [falling, single point]",–
Cc1nn(-c2ccc(C(=O)N3CCN(S(=O)(=O)c4ccccc4C(F)(F)F)CC3)cc2)c(C)c1Cl,-5.97,–,–
CCn1c(SCC(=O)NC2CCCCC2)nnc1C(C)NC(=O)c1ccccc1F (centres undefined),12.6,–,–
COc1cc(/C=C2\SC(=O)N(CCN)C2=O)ccc1OS(=O)(=O)c1cc(C)ccc1C,-29.7,"1.46 µM [falling, partial curve]",–

SMILES,cell number change [%],AC50 [1],AC50 [2]
CCOc1ccc(CCNC(=O)c2cccs2)cc1OCC,-34.8,–,"29.1 µM [falling, single point]"
Cc1ccccc1OCCNc1cc(N2CC(C)NC(C)C2)ccc1[N+](=O)[O-] (centres undefined),4.08,"0.82 µM [rising, partial curve, poor fit]",–
NC(=O)c1ccsc1NC(=O)COC(=O)c1cnccn1,-51.8,"23.1 µM [falling, single point]","18.4 µM [falling, single point]"
CCCCn1c(N)c(N(CC)C(=O)c2cc(S(=O)(=O)N3CCCCCC3)ccc2OC)c(=O)[nH]c1=O,1.5,–,–
CCOC(=O)Cn1c2c(c(=N)c3c1CCC3)CCCC2,-13.4,–,"0.731 µM [falling, full curve, poor fit]"
COCCNc1nc(SCC(=O)N2CCN(c3ccccc3OC)CC2)nc2ccccc12,-40.3,"1.46 µM [falling, full curve]","29.1 µM [falling, single point]"
O=C(CCCN1C(=O)/C(=C/c2cccs2)SC1=S)Nc1ccc(C(=O)O)cc1,26.9,–,–
CCC(=O)N1c2ccc(S(=O)(=O)NCCc3ccccc3)cc2CC1C (centres undefined),-4.61,"16.4 µM [rising, partial curve]",–
Cc1ccccc1C(=O)NC(NC(=S)Nc1ccc(S(N)(=O)=O)cc1)C(Cl)(Cl)Cl (centres undefined),13,–,–
CCOC(=O)c1c(NC(=O)CSc2nc3cc(Cl)ccc3s2)sc(C(C)=O)c1C,125,–,"29.1 µM [rising, partial curve, poor fit]"
O=C(/C=C1\NC2(CCCC2)Cc2ccccc21)N1CCOCC1,–,"3.26 µM [falling, partial curve, poor fit]",–
CC(Oc1ccc(Cl)cc1Cl)c1ccn[nH]1 (centres undefined),-14,–,"4.11 µM [falling, single point]"
COc1ccccc1NC(=O)CNC(=O)c1ccccc1C,50.8,–,"13 µM [rising, partial curve]"
COc1ccc(S(=O)(=O)N(CC(=O)NC(C)C)Cc2ccccc2)cc1,53.8,"1.46 µM [rising, partial curve, poor fit]","11.6 µM [rising, partial curve]"
Cc1ccc(-n2ncc3c2CC(C)(C)CC3NC(=O)c2ccccn2)cc1 (centres undefined),-13.7,–,–
CCCn1c(N)c(C(=O)CSc2nc(C)nc3sc(C)c(C)c23)c(=O)[nH]c1=O,–,"0.411 µM [rising, partial curve]",–
O=C(CN1C(=O)NC2(CCOc3ccccc32)C1=O)NCc1ccc(F)cc1 (centres undefined),-14.5,"2.59 µM [rising, partial curve, poor fit]",–
Cc1ccc(S(=O)(=O)c2nc(-c3ccccc3)oc2NCCCN2CCOCC2)cc1,–,"6.51 µM [rising, single point]","2.91 µM [rising, single point]"
